Assay results published in patent US20090068195A1.
Results are given in words; binding and its absence hold for the method and conditions named. Some entries that bind do so weakly or less than the wild type. Where a sequence is shown, tags or fusion partners need not be part of it.

Sequences of proteins named here, by UniProt entry; tags and fusion partners are left off. A change or cut given only in a name is not applied to a line headed by its entry.
UniProt Q5I6E4: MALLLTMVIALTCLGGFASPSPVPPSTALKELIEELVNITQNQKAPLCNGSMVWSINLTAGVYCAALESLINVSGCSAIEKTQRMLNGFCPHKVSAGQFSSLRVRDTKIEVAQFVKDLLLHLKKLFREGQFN

Assays:
[1] = biological target: T1, recombinant soluble human IL-13Rα1-Fc (human) (UniProt P78552); test: ELISA: FLAG-tagged NHP IL-13 on plate-coated IL-13Ralpha1-Fc
T1 sequence: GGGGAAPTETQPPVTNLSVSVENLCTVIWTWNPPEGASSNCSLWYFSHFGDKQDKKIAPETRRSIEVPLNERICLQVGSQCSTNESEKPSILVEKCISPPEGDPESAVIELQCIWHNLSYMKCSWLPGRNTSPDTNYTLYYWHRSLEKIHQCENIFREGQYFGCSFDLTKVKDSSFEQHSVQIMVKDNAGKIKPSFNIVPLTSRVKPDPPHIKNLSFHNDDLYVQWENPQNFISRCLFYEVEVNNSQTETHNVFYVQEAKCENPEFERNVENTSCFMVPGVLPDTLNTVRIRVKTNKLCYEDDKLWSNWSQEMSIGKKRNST

[2] = biological target: T2, sIL-13Rα2-Fc (soluble human IL-13 receptor alpha 2 Fc fusion) (human) (UniProt Q14627); test: ELISA: FLAG-tagged NHP IL-13 on plate-coated IL-13Ralpha2-Fc
T2 sequence (looked up): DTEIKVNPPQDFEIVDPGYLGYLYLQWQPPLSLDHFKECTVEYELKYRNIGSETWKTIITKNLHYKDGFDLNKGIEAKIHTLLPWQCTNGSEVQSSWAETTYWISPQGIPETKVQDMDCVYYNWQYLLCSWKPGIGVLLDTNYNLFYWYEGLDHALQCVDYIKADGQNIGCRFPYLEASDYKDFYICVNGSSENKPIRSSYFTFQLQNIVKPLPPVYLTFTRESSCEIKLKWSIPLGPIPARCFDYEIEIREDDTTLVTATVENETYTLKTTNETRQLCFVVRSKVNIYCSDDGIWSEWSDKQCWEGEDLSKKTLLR

Substance: FLAG-tagged NHP IL-13 (from UniProt Q5I6E4 21-132) (ligand)
- binding [1]: binds
- binding [2]: binds
